# Measurements reported in PMC9860392, “The N-terminal domain of human mitochondrial helicase Twinkle has DNA-binding activity crucial for supporting processive DNA synthesis by polymerase γ” (The Journal of Biological Chemistry, 2022).
# Negatives hold for the conditions tested. At least one verdict was read from the data and is not stated in words by the source. Tags and fusion partners may be left off the protein sequences shown. For at least one entry, the source does not settle the construct or the ends of the probe. For some of these results: The comparison behind a weaker result is the experiment's own reference, which may not be listed here.
# Legend:
# [1] = biological target: T1, Twinkle NTD (Homo sapiens) (UniProt Q96RR1); experiment: fluorescence anisotropy; conditions: 50 mM NaCl, 50 mM Tris acetate pH 7.5, 10% glycerol, 0.05% Tween-20, 0.5 mM DTT, 0 or 50 mM NaCl, 2.5 nM DNA, no Mg2+ or nucleotide listed, temperature not stated, recombinant protein, residues 43-372, protein details: SUMO tag removed (ULP1), label: 3' fluorescein-T, single-stranded DNA; for binding result: dash in table
# T1 sequence (looked up): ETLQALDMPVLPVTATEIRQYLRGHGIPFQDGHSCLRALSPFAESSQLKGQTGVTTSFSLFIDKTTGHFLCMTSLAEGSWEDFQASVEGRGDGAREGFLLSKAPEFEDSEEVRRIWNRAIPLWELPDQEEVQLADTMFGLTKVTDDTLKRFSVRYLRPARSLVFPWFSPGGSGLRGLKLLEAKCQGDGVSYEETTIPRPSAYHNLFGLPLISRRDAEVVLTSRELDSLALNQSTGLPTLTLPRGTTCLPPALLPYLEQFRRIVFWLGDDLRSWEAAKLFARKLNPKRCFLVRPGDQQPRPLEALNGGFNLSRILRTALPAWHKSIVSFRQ
# [2] = biological target: T2, Twinkle CTD (C-terminal domain plus linker) (Homo sapiens) (UniProt Q96RR1); experiment: fluorescence anisotropy; conditions: 50 mM NaCl, 50 mM Tris acetate pH 7.5, 10% glycerol, 0.05% Tween-20, 0.5 mM DTT, 0 or 50 mM NaCl, 2.5 nM DNA, no Mg2+ or nucleotide listed, temperature not stated, recombinant protein, residues 360-684, protein details: SUMO tag removed (ULP1), label: 3' fluorescein-T, single-stranded DNA
# T2 sequence (looked up): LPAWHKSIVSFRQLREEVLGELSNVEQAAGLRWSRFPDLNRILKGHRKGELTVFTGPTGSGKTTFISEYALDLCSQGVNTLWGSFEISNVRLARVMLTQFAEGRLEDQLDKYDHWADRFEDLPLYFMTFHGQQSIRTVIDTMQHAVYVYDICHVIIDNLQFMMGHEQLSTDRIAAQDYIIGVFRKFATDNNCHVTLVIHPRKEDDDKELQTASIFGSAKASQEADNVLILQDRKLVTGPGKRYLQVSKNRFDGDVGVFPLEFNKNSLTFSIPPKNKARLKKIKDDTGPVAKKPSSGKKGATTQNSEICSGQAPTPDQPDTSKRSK
sequence,measurement,setting,value
AACTCTTGAACACT [14 nt ssDNA],binding result,[1]; salt competed effectively,no binding
same,Kd,[2],128 nM
ATAACTCTTGAACACT [16 nt ssDNA],binding result,[1]; salt competed effectively,no binding
same,Kd,[2],117 nM
CTCTTGAACACT [12 nt ssDNA],binding result,[1]; salt competed effectively,no binding
same,binding result,"[2]; barely any binding, no Kd",binds more weakly
TGAACACT [8 nt ssDNA],binding result,[1],no binding
same,binding result,[2]; dash in table,no binding
TGCTATAACTCTTGAACACT [20 nt ssDNA],Kd,[1],440 nM
TGTGTTAGTTGGGGGGTGACTGTTAAAAGT [30 nt ssDNA],Kd,[1],264 nM
